Measured values reported in article PMC3161984.

Chains of the proteins cited; added tags and fusions are not shown.
UniProt P06428: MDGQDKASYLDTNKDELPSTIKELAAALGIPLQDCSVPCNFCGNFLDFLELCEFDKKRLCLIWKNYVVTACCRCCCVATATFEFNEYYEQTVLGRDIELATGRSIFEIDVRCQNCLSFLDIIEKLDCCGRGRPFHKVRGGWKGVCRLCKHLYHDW
UniProt P03126: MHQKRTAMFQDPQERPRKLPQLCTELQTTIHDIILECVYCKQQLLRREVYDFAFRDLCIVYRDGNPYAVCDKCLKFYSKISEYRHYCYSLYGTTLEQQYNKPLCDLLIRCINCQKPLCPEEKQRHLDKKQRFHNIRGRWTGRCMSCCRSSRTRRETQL
UniProt Q09472: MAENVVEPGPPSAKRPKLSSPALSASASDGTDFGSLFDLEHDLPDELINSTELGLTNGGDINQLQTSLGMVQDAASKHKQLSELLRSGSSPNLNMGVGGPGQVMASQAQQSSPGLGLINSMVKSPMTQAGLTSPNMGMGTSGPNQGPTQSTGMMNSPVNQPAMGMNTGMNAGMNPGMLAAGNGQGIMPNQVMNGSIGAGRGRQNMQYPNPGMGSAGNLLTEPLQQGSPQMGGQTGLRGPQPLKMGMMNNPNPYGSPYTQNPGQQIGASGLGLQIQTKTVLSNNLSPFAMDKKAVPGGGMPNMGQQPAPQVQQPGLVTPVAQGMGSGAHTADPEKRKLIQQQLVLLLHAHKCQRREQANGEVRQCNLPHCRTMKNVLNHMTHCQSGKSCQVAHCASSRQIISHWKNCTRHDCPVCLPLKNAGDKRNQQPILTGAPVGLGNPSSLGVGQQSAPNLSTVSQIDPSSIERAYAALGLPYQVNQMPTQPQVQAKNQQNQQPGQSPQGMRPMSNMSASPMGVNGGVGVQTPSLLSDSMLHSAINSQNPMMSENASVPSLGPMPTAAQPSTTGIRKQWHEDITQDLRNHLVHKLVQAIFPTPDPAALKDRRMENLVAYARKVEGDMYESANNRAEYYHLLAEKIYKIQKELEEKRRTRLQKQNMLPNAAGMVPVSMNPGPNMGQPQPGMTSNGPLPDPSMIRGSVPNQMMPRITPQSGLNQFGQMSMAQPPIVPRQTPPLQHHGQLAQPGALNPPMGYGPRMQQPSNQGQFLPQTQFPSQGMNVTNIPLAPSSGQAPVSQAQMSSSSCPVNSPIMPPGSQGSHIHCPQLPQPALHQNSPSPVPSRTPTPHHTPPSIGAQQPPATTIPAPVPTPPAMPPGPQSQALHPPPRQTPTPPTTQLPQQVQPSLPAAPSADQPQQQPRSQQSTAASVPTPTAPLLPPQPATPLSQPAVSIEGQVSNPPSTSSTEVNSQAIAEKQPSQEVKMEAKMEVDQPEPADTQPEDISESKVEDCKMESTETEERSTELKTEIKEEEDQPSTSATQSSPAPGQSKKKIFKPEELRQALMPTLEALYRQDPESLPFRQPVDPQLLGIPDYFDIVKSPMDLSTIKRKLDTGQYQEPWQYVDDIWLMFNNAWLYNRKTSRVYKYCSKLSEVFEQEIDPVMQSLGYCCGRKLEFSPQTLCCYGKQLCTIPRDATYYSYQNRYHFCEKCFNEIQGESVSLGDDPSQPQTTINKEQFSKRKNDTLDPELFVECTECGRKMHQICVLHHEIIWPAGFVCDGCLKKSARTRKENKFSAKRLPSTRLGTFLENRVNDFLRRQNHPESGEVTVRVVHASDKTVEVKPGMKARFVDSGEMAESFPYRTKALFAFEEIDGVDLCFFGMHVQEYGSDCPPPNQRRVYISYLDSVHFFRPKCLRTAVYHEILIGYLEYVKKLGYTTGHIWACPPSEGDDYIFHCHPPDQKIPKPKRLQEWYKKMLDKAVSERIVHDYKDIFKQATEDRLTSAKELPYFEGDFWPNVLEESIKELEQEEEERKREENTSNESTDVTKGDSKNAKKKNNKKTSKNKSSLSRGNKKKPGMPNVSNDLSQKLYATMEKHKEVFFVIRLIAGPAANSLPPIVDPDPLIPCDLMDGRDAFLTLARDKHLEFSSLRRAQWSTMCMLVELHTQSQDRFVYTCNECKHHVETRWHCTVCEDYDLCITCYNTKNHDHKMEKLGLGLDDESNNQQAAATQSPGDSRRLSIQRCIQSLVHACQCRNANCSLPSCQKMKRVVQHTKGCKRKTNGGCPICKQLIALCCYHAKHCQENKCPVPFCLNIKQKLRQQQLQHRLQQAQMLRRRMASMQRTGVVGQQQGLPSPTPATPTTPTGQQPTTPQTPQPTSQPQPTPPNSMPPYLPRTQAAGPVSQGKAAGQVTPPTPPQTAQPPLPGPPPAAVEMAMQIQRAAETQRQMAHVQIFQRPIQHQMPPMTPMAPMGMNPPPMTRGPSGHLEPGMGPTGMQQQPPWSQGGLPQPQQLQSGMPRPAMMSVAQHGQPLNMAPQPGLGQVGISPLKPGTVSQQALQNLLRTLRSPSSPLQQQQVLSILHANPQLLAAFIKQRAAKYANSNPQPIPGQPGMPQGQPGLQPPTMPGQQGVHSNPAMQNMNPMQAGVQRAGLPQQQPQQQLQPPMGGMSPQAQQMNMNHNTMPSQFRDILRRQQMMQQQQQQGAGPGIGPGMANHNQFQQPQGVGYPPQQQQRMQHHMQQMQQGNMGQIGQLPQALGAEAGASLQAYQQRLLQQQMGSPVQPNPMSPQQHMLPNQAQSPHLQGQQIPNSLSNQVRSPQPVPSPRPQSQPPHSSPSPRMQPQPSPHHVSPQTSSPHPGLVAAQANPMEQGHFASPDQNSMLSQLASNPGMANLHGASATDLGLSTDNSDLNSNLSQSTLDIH
UniProt Q92793: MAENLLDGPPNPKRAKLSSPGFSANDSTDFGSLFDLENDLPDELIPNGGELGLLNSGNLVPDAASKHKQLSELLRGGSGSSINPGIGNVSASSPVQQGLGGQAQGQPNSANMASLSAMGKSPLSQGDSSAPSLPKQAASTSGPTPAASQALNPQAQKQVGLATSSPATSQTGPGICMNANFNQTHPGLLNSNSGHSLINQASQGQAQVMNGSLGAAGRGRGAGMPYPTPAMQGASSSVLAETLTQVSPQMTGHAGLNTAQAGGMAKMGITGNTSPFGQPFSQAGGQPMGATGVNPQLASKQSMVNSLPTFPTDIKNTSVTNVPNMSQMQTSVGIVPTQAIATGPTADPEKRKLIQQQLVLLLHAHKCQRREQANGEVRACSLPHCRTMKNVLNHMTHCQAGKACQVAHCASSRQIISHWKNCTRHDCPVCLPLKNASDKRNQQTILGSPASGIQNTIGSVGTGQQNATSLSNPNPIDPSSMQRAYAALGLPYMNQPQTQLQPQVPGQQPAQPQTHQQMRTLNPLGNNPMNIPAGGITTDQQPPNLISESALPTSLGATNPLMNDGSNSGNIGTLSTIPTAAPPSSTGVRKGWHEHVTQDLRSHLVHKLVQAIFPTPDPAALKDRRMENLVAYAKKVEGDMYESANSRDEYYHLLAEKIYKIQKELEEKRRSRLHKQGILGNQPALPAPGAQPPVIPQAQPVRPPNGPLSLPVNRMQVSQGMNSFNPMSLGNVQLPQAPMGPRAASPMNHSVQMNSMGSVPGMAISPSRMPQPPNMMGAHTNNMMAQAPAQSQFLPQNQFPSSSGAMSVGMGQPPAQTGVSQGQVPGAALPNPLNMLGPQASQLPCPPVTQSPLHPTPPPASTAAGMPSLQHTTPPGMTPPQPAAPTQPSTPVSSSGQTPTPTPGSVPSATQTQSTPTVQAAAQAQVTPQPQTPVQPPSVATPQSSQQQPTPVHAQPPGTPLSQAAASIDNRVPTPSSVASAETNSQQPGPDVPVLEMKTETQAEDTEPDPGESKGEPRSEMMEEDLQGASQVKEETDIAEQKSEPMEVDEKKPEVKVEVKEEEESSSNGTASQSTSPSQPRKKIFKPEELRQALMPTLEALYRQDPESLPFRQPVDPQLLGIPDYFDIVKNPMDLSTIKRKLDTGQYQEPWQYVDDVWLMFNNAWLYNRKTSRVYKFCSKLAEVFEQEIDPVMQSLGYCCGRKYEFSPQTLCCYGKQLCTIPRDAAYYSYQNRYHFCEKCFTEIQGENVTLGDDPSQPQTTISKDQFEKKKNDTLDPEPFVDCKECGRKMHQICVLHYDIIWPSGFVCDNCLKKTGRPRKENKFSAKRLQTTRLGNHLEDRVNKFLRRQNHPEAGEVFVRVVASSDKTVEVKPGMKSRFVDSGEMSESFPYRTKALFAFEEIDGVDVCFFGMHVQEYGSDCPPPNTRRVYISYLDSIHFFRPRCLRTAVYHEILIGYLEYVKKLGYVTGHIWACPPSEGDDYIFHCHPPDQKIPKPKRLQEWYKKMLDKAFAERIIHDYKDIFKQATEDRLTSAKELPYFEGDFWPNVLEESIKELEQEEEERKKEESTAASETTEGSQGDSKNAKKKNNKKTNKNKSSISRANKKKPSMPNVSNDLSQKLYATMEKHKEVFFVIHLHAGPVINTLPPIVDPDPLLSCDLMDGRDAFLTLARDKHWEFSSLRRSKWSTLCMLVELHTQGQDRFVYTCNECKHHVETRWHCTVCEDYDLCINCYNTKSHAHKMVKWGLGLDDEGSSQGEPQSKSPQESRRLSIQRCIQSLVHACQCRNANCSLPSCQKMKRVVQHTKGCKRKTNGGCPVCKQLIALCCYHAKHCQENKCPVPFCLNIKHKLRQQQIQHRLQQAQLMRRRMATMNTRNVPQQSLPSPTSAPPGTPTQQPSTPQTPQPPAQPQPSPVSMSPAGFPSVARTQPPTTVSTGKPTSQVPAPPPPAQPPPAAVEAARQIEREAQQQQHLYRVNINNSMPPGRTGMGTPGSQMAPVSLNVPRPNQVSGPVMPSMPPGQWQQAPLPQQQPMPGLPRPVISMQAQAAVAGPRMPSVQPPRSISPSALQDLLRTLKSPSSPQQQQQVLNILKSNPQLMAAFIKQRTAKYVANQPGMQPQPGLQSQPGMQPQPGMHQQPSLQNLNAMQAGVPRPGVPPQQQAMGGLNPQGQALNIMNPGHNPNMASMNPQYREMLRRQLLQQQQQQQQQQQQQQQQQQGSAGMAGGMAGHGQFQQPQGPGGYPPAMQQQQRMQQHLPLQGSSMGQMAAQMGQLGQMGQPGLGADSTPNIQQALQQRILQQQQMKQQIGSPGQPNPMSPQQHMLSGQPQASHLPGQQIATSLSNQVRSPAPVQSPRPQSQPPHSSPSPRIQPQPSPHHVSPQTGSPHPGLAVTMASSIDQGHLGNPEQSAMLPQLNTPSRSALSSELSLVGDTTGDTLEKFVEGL

Experiments:
[1] = target: GST-tagged E6 protein from β-HPV type 8 (human papillomavirus type 8) (UniProt P06428); assay: affinity purification with mass spectrometry; only the target purified
[2] = target: GST-tagged E6 protein from α-HPV type 16 (human papillomavirus type 16) (UniProt P03126); assay: as above

Substance | binding [1] | binding [2]
histone acetyltransferase p300 (endogenous) (from UniProt Q09472 1-2414) | binds | –
CBP (endogenous) (from UniProt Q92793 1-2442) | binds | no binding

No constants are given. Whether binding was seen depends on the method and setting. Binding seen in cells or lysates may run through a third protein. A yes stands for co-enrichment or nearness to the bait. Other partners may have been found. For part of these data: A no says only that the protein was not detected with the bait.
